These are yes or no findings as the source states them, for the method shown. In cells and extracts the contact can be indirect. Some binding calls cover weakened binding; strength is not graded here. Where a sequence is shown, tags or fusion partners need not be part of it.

The chains behind the UniProt entries cited, without tags or fusion partners.
UniProt P53131: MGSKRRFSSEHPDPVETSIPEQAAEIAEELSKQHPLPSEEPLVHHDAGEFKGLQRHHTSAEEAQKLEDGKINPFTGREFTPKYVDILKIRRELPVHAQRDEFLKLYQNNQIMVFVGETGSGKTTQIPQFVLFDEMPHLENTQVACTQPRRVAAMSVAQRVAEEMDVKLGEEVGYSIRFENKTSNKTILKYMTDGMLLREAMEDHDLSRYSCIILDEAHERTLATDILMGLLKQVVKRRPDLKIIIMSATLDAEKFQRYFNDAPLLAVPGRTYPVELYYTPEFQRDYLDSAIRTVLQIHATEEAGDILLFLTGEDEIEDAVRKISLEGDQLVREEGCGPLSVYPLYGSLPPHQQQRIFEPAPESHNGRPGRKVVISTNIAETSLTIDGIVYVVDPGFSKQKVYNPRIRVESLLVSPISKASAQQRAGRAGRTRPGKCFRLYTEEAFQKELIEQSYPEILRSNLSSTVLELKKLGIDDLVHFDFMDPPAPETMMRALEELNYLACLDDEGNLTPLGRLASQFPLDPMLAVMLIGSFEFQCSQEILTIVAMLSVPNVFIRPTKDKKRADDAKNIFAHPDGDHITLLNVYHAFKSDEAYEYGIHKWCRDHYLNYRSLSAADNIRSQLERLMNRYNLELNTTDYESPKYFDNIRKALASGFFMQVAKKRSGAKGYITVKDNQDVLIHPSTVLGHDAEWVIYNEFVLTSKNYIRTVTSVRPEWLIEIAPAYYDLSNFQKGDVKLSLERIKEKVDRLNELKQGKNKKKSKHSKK
UniProt P53742: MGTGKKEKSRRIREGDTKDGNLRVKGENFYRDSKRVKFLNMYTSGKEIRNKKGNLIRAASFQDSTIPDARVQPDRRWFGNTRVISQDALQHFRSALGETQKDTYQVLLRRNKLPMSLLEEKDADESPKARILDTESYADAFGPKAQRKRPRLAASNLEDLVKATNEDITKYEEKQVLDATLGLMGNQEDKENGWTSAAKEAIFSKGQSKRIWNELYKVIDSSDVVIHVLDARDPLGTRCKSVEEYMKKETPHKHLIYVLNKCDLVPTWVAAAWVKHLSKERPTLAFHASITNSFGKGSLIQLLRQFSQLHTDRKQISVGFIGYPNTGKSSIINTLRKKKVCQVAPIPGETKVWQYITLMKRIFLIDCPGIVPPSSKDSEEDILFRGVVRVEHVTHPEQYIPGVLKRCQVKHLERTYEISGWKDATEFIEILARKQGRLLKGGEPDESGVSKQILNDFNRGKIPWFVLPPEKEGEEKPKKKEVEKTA

What all share (assay): co-IP; IgG sepharose beads precipitate the TAP- or ZZ-tagged protein from total yeast extracts; HA-tagged protein detected by western with anti-HA antibodies
The target of experiment [1] is Prp43p-TAP (S. cerevisiae) (UniProt P53131).
The target in experiment [2] is T1, Ssf1p-TAP (S. cerevisiae) (UniProt P38789).
T1 sequence: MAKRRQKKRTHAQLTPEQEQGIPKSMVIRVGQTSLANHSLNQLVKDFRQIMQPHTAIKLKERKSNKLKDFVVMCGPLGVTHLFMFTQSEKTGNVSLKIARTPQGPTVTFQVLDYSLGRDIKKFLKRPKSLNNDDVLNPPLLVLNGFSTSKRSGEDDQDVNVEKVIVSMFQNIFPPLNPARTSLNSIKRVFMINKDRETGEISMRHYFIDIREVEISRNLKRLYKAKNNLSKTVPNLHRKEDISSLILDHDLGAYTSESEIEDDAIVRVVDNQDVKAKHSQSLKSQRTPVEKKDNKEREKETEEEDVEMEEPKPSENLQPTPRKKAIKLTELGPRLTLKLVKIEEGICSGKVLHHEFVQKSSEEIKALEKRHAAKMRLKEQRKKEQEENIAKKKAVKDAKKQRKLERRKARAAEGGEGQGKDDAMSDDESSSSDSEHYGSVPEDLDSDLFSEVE

For experiment [3], the target named is T2, Pfa1p-TAP (S. cerevisiae) (UniProt P53866).
T2 sequence: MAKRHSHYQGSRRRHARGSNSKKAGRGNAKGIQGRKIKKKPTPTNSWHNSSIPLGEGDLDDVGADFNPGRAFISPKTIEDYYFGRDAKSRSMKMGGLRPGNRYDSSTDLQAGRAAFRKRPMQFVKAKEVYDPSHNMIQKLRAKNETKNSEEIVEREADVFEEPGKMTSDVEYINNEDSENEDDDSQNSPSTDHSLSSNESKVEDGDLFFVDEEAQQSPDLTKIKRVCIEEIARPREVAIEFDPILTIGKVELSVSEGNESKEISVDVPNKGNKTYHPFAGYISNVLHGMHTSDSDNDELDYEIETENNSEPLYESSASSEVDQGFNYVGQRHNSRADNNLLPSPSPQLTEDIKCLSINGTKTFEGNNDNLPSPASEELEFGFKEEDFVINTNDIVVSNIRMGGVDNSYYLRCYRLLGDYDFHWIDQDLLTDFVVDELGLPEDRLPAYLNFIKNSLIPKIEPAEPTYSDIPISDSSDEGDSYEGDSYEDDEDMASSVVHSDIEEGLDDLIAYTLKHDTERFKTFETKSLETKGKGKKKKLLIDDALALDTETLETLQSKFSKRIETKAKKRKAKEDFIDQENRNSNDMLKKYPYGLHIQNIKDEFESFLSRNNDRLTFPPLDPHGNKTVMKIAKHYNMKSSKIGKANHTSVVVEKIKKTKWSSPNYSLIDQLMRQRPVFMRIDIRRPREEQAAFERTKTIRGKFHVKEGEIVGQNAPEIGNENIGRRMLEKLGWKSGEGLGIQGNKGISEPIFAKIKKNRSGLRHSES

The target in experiment [4] is T3, Utp22p-TAP (S. cerevisiae) (UniProt P53254).
T3 sequence: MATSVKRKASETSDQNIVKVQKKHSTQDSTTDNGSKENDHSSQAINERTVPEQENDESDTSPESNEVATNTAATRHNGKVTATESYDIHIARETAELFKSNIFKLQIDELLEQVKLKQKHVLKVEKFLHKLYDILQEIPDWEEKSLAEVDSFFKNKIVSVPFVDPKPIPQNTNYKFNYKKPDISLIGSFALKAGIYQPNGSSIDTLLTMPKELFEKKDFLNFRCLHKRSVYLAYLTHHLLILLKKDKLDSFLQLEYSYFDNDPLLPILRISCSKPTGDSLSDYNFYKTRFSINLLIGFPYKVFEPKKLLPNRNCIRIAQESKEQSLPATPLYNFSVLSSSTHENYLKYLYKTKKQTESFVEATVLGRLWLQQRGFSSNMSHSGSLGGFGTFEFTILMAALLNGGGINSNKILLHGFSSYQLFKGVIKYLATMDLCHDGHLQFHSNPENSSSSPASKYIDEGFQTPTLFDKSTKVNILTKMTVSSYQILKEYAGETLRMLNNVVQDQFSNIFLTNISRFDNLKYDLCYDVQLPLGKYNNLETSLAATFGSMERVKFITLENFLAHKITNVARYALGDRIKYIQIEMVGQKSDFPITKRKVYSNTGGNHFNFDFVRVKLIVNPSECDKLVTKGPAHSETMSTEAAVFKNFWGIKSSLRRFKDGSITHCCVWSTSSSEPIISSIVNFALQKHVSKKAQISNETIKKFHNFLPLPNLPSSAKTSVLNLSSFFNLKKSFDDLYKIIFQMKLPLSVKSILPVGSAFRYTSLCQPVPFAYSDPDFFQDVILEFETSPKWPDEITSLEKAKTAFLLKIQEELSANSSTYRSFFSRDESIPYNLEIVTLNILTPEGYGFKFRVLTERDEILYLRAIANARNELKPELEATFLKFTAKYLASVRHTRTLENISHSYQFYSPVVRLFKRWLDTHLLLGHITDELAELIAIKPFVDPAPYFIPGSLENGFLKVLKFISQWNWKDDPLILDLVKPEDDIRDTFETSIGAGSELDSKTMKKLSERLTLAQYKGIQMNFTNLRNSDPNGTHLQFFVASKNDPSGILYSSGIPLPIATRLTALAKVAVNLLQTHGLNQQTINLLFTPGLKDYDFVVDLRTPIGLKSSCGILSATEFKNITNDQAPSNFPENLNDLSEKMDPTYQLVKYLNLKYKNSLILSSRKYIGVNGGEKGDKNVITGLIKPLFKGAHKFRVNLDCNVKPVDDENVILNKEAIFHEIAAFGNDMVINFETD

Experiment [5] deals with Nog2p-TAP (S. cerevisiae) (UniProt P53742).

B1: Gno1p-HA (GNO1-HA-TRP1 cassette, made with plasmid pFA6a-3HA-TRP1) (protein, UniProt P53335 1-271)
chain: MGLAATRTKQRFGLDPRNTAWSNDTSRFGHQFLEKFGWKPGMGLGLSPMNSNTSHIKVSIKDDNVGLGAKLKRKDKKDEFDNGECAGLDVFQRILGRLNGKESKISEELDTQRKQKIIDGKWGIHFVKGEVLASTWDPKTHKLRNYSNAKKRKREGDDSEDEDDDDKEDKDSDKKKHKKHKKHKKDKKKDKKDKKEHKKHKKEEKRLKKEKRAEKTKETKKTSKLKSSESASNIPDAVNTRLSVRSKWIKQKRAALMDSKALNEIFMITND
For the molecule B1, the binding result in experiment [1] is on record as “binds”; in experiment [2], “binds”; in experiment [3], “no binding”; in experiment [4], “binds”; in experiment [5], “no binding”.

These data come from article PMC4066782, “The telomerase inhibitor Gno1p/PINX1 activates the helicase Prp43p during ribosome biogenesis” (Nucleic Acids Research, 2014).
